Measurements as given in patent US20220280607A1, “Treatment of Heart Defects and Conditions in Pediatric Patients” (University of Pittsburgh - Of the Commonwealth System of …, priority 2019, published 2022).
At least one structure is not confirmed: it was looked up by name or label, or the drawing left a doubt.

What was measured:
[1] = tested on: Ect2 mRNA in neonatal rat ventricular cardiomyocytes (NRVM); test: Ect2 mRNA expression in cultured NRVMs treated with forskolin; format: cell-based; conditions: Fsk added to cultured NRVMs (10 μM), FIG. 12A
[2] = tested on: human fetal cardiomyocytes; test: Cytokinesis failure in cultured human fetal cardiomyocytes (β-adrenergic receptor signaling pathway studies); format: cell-based; conditions: 10 μM, FIG. 14C
Description: Primary cardiomyocyte culture experiments: Neonatal (mouse or rat) cardiomyocytes or human fetal cardiomyocytes were plated in 4-well chamber slides pre-coated with fibronectin (10 μg/ml) at a density of 200,000 cells/well and cultured with DMEM/high glucose (for mouse and rat cardiomyocytes) or IMDM (for fetal human cardiomyocytes) containing 10% fetal bovine serum (FBS) and recombinant neuregulin 1 (rNRG1, 100 nanograms per milliliter (ng/ml)) overnight. All treatments and BrdU (30 micromolar (μM)) were added on the next day.
β-adrenergic receptor signaling pathway studies: Forskolin (10 μM), propranolol (10 μM), dobutamine (10 μM), or a combination of propranolol (10 μM) and dobutamine (10 μM) were added to the culture from day 1 to day 3. The cells were collected for examining gene expression or immunofluorescence microscopy at day 3.
Cardiomyocytes cultured on glass surfaces. […] The BrdU-positive nuclei, cell-cell boundaries (Pan-Cadherin antibody), and cardiomyocyte markers (α-actinin or troponin I antibody) were labeled by immunofluorescence. The stained cells were imaged under Nikon confocal microscope. The binucleated cardiomyocytes and all BrdU-positive cardiomyocytes were quantified using Fiji software.

[3] = tested on: cardiomyocytes from infants with ToF/PS; test: ToF/PS myocardium tissue (organotypic) culture: binucleated BrdU-labeled cardiomyocytes; format: cell-based, human; conditions: organotypic cultures of heart pieces from infants with ToF/PS, 10 μM, FIG. 14E
Description: ToF/PS myocardium tissue culture: Discarded myocardium samples were collected during ToF/PS surgery, cut into ˜1 mm^3 tissue blocks, and cultured in IMDM media containing 10% FBS, recombinant neuregulin 1 (rNRG1, 100 ng/ml), and BrdU (30 μM) for 6 days. Samples were treated with forskolin (10 μM), propranolol (10 μM), dobutamine (10 μM), or a combination of propranolol (10 μM) and dobutamine (10 μM).
Cultured ToF/PS myocardium. Cardiomyocytes were isolated from cultured myocardium with the fixation-digestion method. After denaturing the DNA with 2N HCl and neutralization with 2 Normal (N) sodium hydroxide (NaOH), immunofluorescence antibody labeling was performed in solution. The proportion of binucleated and BrdU-positive was quantified with a Nikon A1R microscope.

C=C[C@@]1(C)CC(=O)[C@]2(O)[C@@]3(C)[C@@H](O)CCC(C)(C)[C@@H]3[C@H](O)[C@H](OC(C)=O)[C@@]2(C)O1 [forskolin]
Ect2 mRNA levels [1]: decreased | cardiomyocyte cytokinesis failure (formation of binucleated daughter cells) [2]: maximally increased | proportion of binucleated cardiomyocytes [3]: maximal increase
